In general, inhibition refers to the share of the control response that was lost under treatment.

The test system of this experiment is IL-8. Briefly: cells. Format: cell-based. The note with it: Homo sapiens, NHEK, 24 h. The method, then:
Example 1: Effects of six compounds on normal human epidermal keratinocytes The effects on normal human epidermal keratinocytes (NHEK) were measured by assessing IL-8 and PGE2 release by PMA-stimulated NHEK using specific ELISA kits.
Keratinocytes were seeded in 96-well plates and cultured for 24 hours in culture medium. The medium was then replaced by assay medium 1 containing or not (control) the test compounds or the reference compound (staurosporine tested at 1 nM for IL-8 release or indomethacin tested at 1 μM for PGE2 release) and the cells were pre-incubated for 24 hours. After pre-incubation, the medium was removed and replaced by assay medium 1 containing or not (stimulated control) the compounds or the reference compound and containing the inducer (PMA tested at 0.5 μg/ml). The cells were then incubated for 24 hours. In parallel, a non-stimulated control condition was performed.
All experimental conditions were performed in n=3. At the end of incubation, the culture supernatants were collected for IL-8 and PGE2 quantifications.
IL-8 and PGE2 released in the culture supernatants were measured using specific ELISA kits according to the supplier's instructions.

SMILES strings stand for the structures.

For `CN[C@@H]1C[C@H]2O[C@@](C)([C@@H]1OC)n1c3ccccc3c3c4c(c5c6ccccc6n2c5c31)C(=O)NC4` [Staurosporine, staurosporine, reference compound], under “read-out: % Relative inhibition of IL-8 release”, the inhibition at 1 µM was found to be 68%. Also, the inhibition at 0.001 µM (read-out: % of relative inhibition of IL-8 release) turned out to be 68%.

The record behind these values is US20220347247A1, “USE OF CANNABINOIDS IN THE TREATMENT OF INFLAMMATION AND AGING IN THE SKIN” (priority 2021, published 2022).
